Patent publication US11932655B1, “12-bromo-2,16-dioxapentacyclo[7.7.5.01,21.03,8.010,15]henicosa3(8),10,12,14-tetraene-7,20-dione as an antimicrobial compound” (KING FAISAL UNIVERSITY, priority 2023, dated 2024)
For at least one compound, name, drawing or mass did not settle the structure.

Legend:
Test in all cases: Antimicrobial activity, agar dilution, exposure-time test
Assay type in all cases: cell-based
Staphylococcus aureus = settings: St. Aereus
Procedure: (§1) The antibacterial properties of the synthesized compound of 12-bromo-2,16-dioxapentacyclo[7.7.5.0^1,21.0^3,8.0^10,15]henicosa3(8),10,12,14-tetraene-7,20-dione were studied by the method of agar dilution. Test solutions of each compound was prepared in concentration of 1% using dimethylformamide as a solvent. Then they were diluted in physiological solution to obtain the final experimental dilutions of 1:100, 1:200, 1:400, and 1:800. The effect of these substances were compared with furacillin in a controllable study. The testing microbes used were gram positive bacteria Staphylococcus aureus, gram negative bacteria Pseudomonas aeruginosa, Escherichia coli, and Candida albicans fungus. The experiments used for this survey were meat-pentonlu agar (EPA) for cultivation of bacteria and Saburo environment for fungi. Each experiment used 1 mL of test solution on each plate for 500 minutes. Two drops of emulsified with microbes feel were added. All experimental samples were taken from the agar after 10, 20, 40, 60 minutes in the environment on the basis of Patrk planted. Bacteria were cultivated at a temperature of 37° C. for 1 day and the mushroom was kept in a thermostat for […] at a temperature of 28° C. Then results were checked. Those of the control and the antimicrobial activity for the synthesized compounds are listed in Table 1 below, with furacillin serving as a reference.

Pseudomonas aeruginosa = settings: Ps. Aeroqonaza
Procedure: as §1

Candida albicans = system: Candida albicans
Procedure: as §1

Escherichia coli = settings: E.Coli
Procedure: as §1

[1] = dilution rate 1:100, exposure time 10 min
[2] = dilution rate 1:100, exposure time 20 min
[3] = dilution rate 1:100, exposure time 40 min
[4] = dilution rate 1:100, exposure time 60 min
[5] = dilution rate 1:200, exposure time 10 min
[6] = dilution rate 1:200, exposure time 20 min
[7] = dilution rate 1:200, exposure time 40 min
[8] = dilution rate 1:200, exposure time 60 min
[9] = dilution rate 1:400, exposure time 10 min
[10] = dilution rate 1:400, exposure time 20 min
[11] = dilution rate 1:400, exposure time 40 min
[12] = dilution rate 1:400, exposure time 60 min
[13] = dilution rate 1:800, exposure time 10 min
[14] = dilution rate 1:800, exposure time 20 min
[15] = dilution rate 1:800, exposure time 40 min
[16] = dilution rate 1:800, exposure time 60 min

NC(=O)N/N=C/c1ccc([N+](=O)[O-])o1 [Furacilin]
antimicrobial activity (+/−) (Staphylococcus aureus; [1]): −
antimicrobial activity (+/−) (Staphylococcus aureus; [2]): −
antimicrobial activity (+/−) (Staphylococcus aureus; [3]): −
antimicrobial activity (+/−) (Staphylococcus aureus; [4]): −
antimicrobial activity (+/−) (Staphylococcus aureus; [5]): +
antimicrobial activity (+/−) (Staphylococcus aureus; [6]): +
antimicrobial activity (+/−) (Staphylococcus aureus; [7]): +
antimicrobial activity (+/−) (Staphylococcus aureus; [8]): +
antimicrobial activity (+/−) (Staphylococcus aureus; [9]): +
antimicrobial activity (+/−) (Staphylococcus aureus; [10]): +
antimicrobial activity (+/−) (Staphylococcus aureus; [11]): +
antimicrobial activity (+/−) (Staphylococcus aureus; [12]): +
antimicrobial activity (+/−) (Staphylococcus aureus; [13]): +
antimicrobial activity (+/−) (Staphylococcus aureus; [14]): +
antimicrobial activity (+/−) (Staphylococcus aureus; [15]): +
antimicrobial activity (+/−) (Staphylococcus aureus; [16]): +
antimicrobial activity (+/−) (Pseudomonas aeruginosa; [1]): +
antimicrobial activity (+/−) (Pseudomonas aeruginosa; [2]): +
antimicrobial activity (+/−) (Pseudomonas aeruginosa; [3]): +
antimicrobial activity (+/−) (Pseudomonas aeruginosa; [4]): +
antimicrobial activity (+/−) (Pseudomonas aeruginosa; [5]): +
antimicrobial activity (+/−) (Pseudomonas aeruginosa; [6]): +
antimicrobial activity (+/−) (Pseudomonas aeruginosa; [7]): +
antimicrobial activity (+/−) (Pseudomonas aeruginosa; [8]): +
antimicrobial activity (+/−) (Pseudomonas aeruginosa; [9]): +
antimicrobial activity (+/−) (Pseudomonas aeruginosa; [10]): +
antimicrobial activity (+/−) (Pseudomonas aeruginosa; [11]): +
antimicrobial activity (+/−) (Pseudomonas aeruginosa; [12]): +
antimicrobial activity (+/−) (Pseudomonas aeruginosa; [13]): +
antimicrobial activity (+/−) (Pseudomonas aeruginosa; [14]): +
antimicrobial activity (+/−) (Pseudomonas aeruginosa; [15]): +
antimicrobial activity (+/−) (Pseudomonas aeruginosa; [16]): +
antimicrobial activity (+/−) (Candida albicans; [1]): −
antimicrobial activity (+/−) (Candida albicans; [2]): −
antimicrobial activity (+/−) (Candida albicans; [3]): +
antimicrobial activity (+/−) (Candida albicans; [4]): +
antimicrobial activity (+/−) (Candida albicans; [5]): +
antimicrobial activity (+/−) (Candida albicans; [6]): +
antimicrobial activity (+/−) (Candida albicans; [7]): +
antimicrobial activity (+/−) (Candida albicans; [8]): +
antimicrobial activity (+/−) (Candida albicans; [9]): +
antimicrobial activity (+/−) (Candida albicans; [10]): +
antimicrobial activity (+/−) (Candida albicans; [11]): +
antimicrobial activity (+/−) (Candida albicans; [12]): +
antimicrobial activity (+/−) (Candida albicans; [13]): +
antimicrobial activity (+/−) (Candida albicans; [14]): +
antimicrobial activity (+/−) (Candida albicans; [15]): +
antimicrobial activity (+/−) (Candida albicans; [16]): +
antimicrobial activity (+/−) (Escherichia coli; [1]): −
antimicrobial activity (+/−) (Escherichia coli; [2]): −
antimicrobial activity (+/−) (Escherichia coli; [3]): −
antimicrobial activity (+/−) (Escherichia coli; [4]): −
antimicrobial activity (+/−) (Escherichia coli; [5]): +
antimicrobial activity (+/−) (Escherichia coli; [6]): +
antimicrobial activity (+/−) (Escherichia coli; [7]): +
antimicrobial activity (+/−) (Escherichia coli; [8]): +
antimicrobial activity (+/−) (Escherichia coli; [9]): +
antimicrobial activity (+/−) (Escherichia coli; [10]): +
antimicrobial activity (+/−) (Escherichia coli; [11]): +
antimicrobial activity (+/−) (Escherichia coli; [12]): +
antimicrobial activity (+/−) (Escherichia coli; [13]): +
antimicrobial activity (+/−) (Escherichia coli; [14]): +
antimicrobial activity (+/−) (Escherichia coli; [15]): +
antimicrobial activity (+/−) (Escherichia coli; [16]): +
